The results in this text go back to PMC7044221.

Amino acid sequences for entries named in this document (tags omitted).
UniProt D0VYJ9: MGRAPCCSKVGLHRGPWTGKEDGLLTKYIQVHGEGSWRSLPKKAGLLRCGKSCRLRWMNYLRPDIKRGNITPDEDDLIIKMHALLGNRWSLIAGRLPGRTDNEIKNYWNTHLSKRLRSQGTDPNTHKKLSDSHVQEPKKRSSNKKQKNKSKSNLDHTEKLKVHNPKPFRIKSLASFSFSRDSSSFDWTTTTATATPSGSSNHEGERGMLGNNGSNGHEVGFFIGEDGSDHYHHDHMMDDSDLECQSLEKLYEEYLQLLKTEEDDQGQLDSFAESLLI

What all share (assay): split reporter; BiFC with NtYFP and CtYFP fragments tested on both Nt and Ct sides of each factor; transient co-expression in N. benthamiana leaves (A. tumefaciens C58, OD600 0.4) with HC-Pro; confocal microscopy at 3 days post-infiltration
For test [1], the target named is T1, DkMYB2 (Diospyros kaki) (UniProt D0VYJ7).
T1 sequence: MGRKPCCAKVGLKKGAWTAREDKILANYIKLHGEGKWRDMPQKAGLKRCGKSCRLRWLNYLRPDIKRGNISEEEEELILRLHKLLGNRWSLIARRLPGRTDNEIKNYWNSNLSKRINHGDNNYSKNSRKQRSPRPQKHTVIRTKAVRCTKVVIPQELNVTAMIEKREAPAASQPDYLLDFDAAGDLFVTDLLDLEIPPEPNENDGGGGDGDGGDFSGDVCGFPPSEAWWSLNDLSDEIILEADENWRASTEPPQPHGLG

In another test the target is DkMYB4 (Diospyros kaki) (UniProt D0VYJ9).
The target in test [2] is T1, DkMYB2 (Diospyros kaki). This is another data set of the same source.

Like-named read-outs stand apart in the source and are kept apart here. No constants are given. Whether binding was seen depends on the method and setting. Binding seen in cells or lysates may run through a third protein. Some binding calls cover weakened binding; strength is not graded here.

For DkMYB4 (from UniProt D0VYJ9 1-277), the binding entry in the test with DkMYB2 (Diospyros kaki) [1] and with DkMYB4 (Diospyros kaki) was “binds” each time.

B1: DkMYB2 (protein, UniProt D0VYJ7 1-259)
chain: T1 sequence
On to B1, for which the binding entry in the test with DkMYB2 (Diospyros kaki) [2] is “binds”.
